Experimental data reported in PubChem BioAssay AID330 (DTP/NCI, 2004).
The list shows only some results of the screen, not a fair sample: it gathers tests that were run many times, whatever their T/C, doses with no T/C, and many T/C values between a quarter and a half above the control. Other doses and runs of a compound stand elsewhere. T/C gives the treated animals as a percentage of the vehicle group. Some entries give survivors of the animals treated and no T/C: the source files T/C as zero there, which appears to mark a toxic dose or a test without result, not a measured value. Some survivor counts are full or nearly so, which does not show that the dose was tolerated: survival well below the control is almost never listed, so the zero probably covers shortened survival too. Counts of survivors are from the toxicity check (mostly the fifth day) where no day follows; animals may have died later. Schedule codes are those of the source, taken here to give the interval after Q, in days (D) or hours (H), and the number of doses after X. Brackets with × say how often a value occurs here. Some doses were run more than once; the results are listed from low to high. For survival time, the PubChem record calls one and a half times the control and up active, and a quarter to a half above the control has no call in these data; cut-offs in other NCI protocols can differ.

System: P388 leukemia ip, CD2F1 mice, survival T/C
Assay: NCI In Vivo Anticancer Drug Screen. Data for tumor model P388 Leukemia (intraperitoneal) in CD2F1 (CDF1) mice
Details: T/C endpoint: median survival time, higher T/C = longer survival
[1] = dose: 240.0 mg/kg/injection, schedule: Q01DX005 (ip), vehicle: saline with Tween-80
[2] = dose: 6.25 mg/kg/injection, schedule: Q01DX005 (ip), vehicle: saline with Tween-80
[3] = dose: 100.0 mg/kg/injection, schedule: Q01DX005 (ip), vehicle: saline with Tween-80
[4] = dose: 200.0 mg/kg/injection, schedule: Q01DX005 (ip), vehicle: saline with Tween-80
[5] = dose: 100.0 mg/kg/injection, schedule: Q01DX005 (ip), vehicle: Klucel (hydroxypropylcellulose) (HPC)
[6] = dose: 200.0 mg/kg/injection, schedule: Q01DX005 (ip), vehicle: Klucel (hydroxypropylcellulose) (HPC)
[7] = dose: 50.0 mg/kg/injection, schedule: Q01DX005 (ip), vehicle: Klucel (hydroxypropylcellulose) (HPC)

`CC([NH-])CC(C)[NH-].O=[N+]([O-])O.O=[N+]([O-])O.[Pt+2]` (stereo not drawn) was tested, and the T/C (dose: 6.25 mg/kg/injection, schedule: Q04DX002 (ip), vehicle: saline) was 140 % of control and the survivor count (dose: 25.0 mg/kg/injection, schedule: Q04DX002 (ip), vehicle: saline) was 6 of 6 (2×).
For `COC1C(C)OC(OC2CC(C)(O)C(C(=O)O)c3cc4c(c(O)c32)C(=O)c2c(O)cc3c(c2C4=O)OC2OC3(C)C(O)C(N(C)C)C2O)C(OC)C1(C)OC` (stereo not drawn), the T/C (dose: 5.0 mg/kg/injection, schedule: Q01DX009 (ip), vehicle: other) was 130 % of control, the T/C (dose: 10.0 mg/kg/injection, schedule: Q01DX009 (ip), vehicle: other) was 138 % of control and the T/C (dose: 10.0 mg/kg/injection, schedule: Q04DX003 (ip), vehicle: other) was 129 and 133 % of control. For the same compound, the T/C (dose: 20.0 mg/kg/injection, schedule: Q01DX009 (ip), vehicle: other) was 135 % of control, the T/C (dose: 20.0 mg/kg/injection, schedule: Q04DX003 (ip), vehicle: other) was 132 % of control and the survivor count (dose: 40.0 mg/kg/injection, schedule: Q01DX009 (ip), vehicle: other) was 6 of 6. For the same compound, the T/C (dose: 40.0 mg/kg/injection, schedule: Q04DX003 (ip), vehicle: other) was 138 % of control and the survivor count (dose: 80.0 mg/kg/injection, schedule: Q04DX003 (ip), vehicle: other) was 5 of 6.
`C1COCCOCCOCCOCCO1.[Cl][Sn]([Cl])([Cl])[Cl]` was tested, and the survivor count (dose: 240.0 mg/kg/injection, schedule: Q01DX005 (ip), vehicle: Klucel (hydroxypropylcellulose) (HPC)) was 2 of 6.
For `Nc1nc(=O)[nH]c([O-])c1N=O.Nc1nc(=O)[nH]c([O-])c1N=O.[Ag+].[Ag+]`, the survivor count (dose: 60.0 mg/kg/injection, schedule: Q01DX005 (ip), vehicle: saline with Tween-80) was 0 of 6 and 3 of 6, the survivor count (dose: 120.0 mg/kg/injection, schedule: Q01DX005 (ip), vehicle: saline with Tween-80) was 0 of 6 and the survivor count [1] was 0 of 6.
`CC(=O)Nc1cc(F)c2c(c1F)Cc1cc(F)ccc1-2` was tested, and the survivor count (dose: 400.0 mg/kg/injection, schedule: Q01DX009 (ip), vehicle: saline with Tween-80) was 6 of 6.
For `COc1cc2cc[n+](C)c(Cc3ccc(Oc4cc(Cc5c6cc(OC)c(OC)cc6cc[n+]5C)ccc4OC)cc3)c2cc1OC`, the survivor count (dose: 10.0 mg/kg/injection, schedule: Q01DX009 (ip), vehicle: saline) was 1 of 6, the survivor count (dose: 20.0 mg/kg/injection, schedule: Q01DX009 (ip), vehicle: saline) was 0 of 6 and the survivor count (dose: 40.0 mg/kg/injection, schedule: Q01DX009 (ip), vehicle: saline) was 0 of 6. The survivor count (dose: 80.0 mg/kg/injection, schedule: Q01DX009 (ip), vehicle: saline) was 0 of 6.
For `CN(C)CCSc1cc(O)c2c(c1O)C(=O)c1ccccc1C2=O`, the survivor count (dose: 400.0 mg/kg/injection, schedule: Q01DX009 (ip), vehicle: water) was 4 of 6.
`CN(C)c1ccc(C(=C2C=CC(=[N+](C)c3ccccc3)c3ccccc32)c2ccc(N(C)C)cc2)cc1` was tested, and the T/C (dose: 3.12 mg/kg/injection, schedule: Q01DX005 (ip), vehicle: saline with Tween-80) was 129 % of control, the T/C [2] was 125 % of control and the survivor count [2] was 6 of 6. The survivor count (dose: 12.5 mg/kg/injection, schedule: Q01DX005 (ip), vehicle: saline with Tween-80) was 0 of 6 and 4 of 5, the survivor count (dose: 25.0 mg/kg/injection, schedule: Q01DX005 (ip), vehicle: saline with Tween-80) was 0 of 5 and the survivor count (dose: 50.0 mg/kg/injection, schedule: Q01DX005 (ip), vehicle: saline with Tween-80) was 0 of 5. The survivor count [3] was 0 of 5 and the survivor count [4] was 0 of 5.
For `COc1cccc2c1C(=O)c1c(O)c3c(c(O)c1C2=O)CC(O)(C(C)=O)CC3OC1CC(NCC2(O)OCC(O)C2O)C(O)C(C)O1` (stereo not drawn), the T/C (dose: 50.0 mg/kg/injection, schedule: Q04DX003 (ip), vehicle: water) was 137 % of control.
In the case of `Cn1c(C=O)cnc1[N+](=O)[O-]`, the survivor count (dose: 100.0 mg/kg/injection, schedule: Q01DX009 (ip), vehicle: Klucel (hydroxypropylcellulose) (HPC)) was 4 of 6 and the survivor count (dose: 200.0 mg/kg/injection, schedule: Q01DX009 (ip), vehicle: Klucel (hydroxypropylcellulose) (HPC)) was 0 of 6.
`CCOP(=O)(OCC)C(C#N)OC(C)(C)C` (stereo not drawn) was tested, and the survivor count [1] was 2 of 6.
In the case of `CCOP(=O)(Cc1cc(=O)oc2cc(OC)ccc12)OCC`, the survivor count (dose: 400.0 mg/kg/injection, schedule: Q01DX001 (ip), vehicle: saline) was 3 of 6.
With `CC(C)c1ccc(C(Cc2ccccc2)N(CCO)CCO)cc1` (stereo not drawn) the survivor count [5] was 2 of 5 and the survivor count [6] was 0 of 5.
For `CC(C)C(=O)[O][Bi]([c]1ccccc1)[c]1ccccc1`, the T/C (dose: 12.5 mg/kg/injection, schedule: Q01DX005 (ip), vehicle: Klucel (hydroxypropylcellulose) (HPC)) was 140 % of control, the survivor count (dose: 25.0 mg/kg/injection, schedule: Q01DX005 (ip), vehicle: Klucel (hydroxypropylcellulose) (HPC)) was 0 of 6 and the T/C [7] was 119 and 156 % of control. For the same compound, the survivor count [7] was 0 of 6 and 3 of 6, the survivor count [5] was 0 of 6 and the survivor count [6] was 0 of 6.
With `COc1ccc(C(C)c2cc(N=O)c(OC)cc2O)cc1` (stereo not drawn) the survivor count [3] was 6 of 6 and the survivor count [4] was 6 of 6.
